PubChem BioAssay AID493246 | Drosophila RNAi Screening Center – 2011

- Screen: 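Genes fly cells need to grow and stay alive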 (primary screen)
- Cell system: Drosophila Kc and S2R+ cells
- Reagents: long dsRNA against Drosophila genes
- Measured: 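Raw, unnormalised count of remaining cells in each well; per-plate z-scores of cell number underlie the calls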
- Reading the numbers: Kc cell number and S2R+ cell number: higher = more cells remaining
- Rule for the call: 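Active when the per-plate z-score of cell number is 3 or more in the direction of fewer cells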
In all, the deposit lists about 21,000 reagents; this is a random part of those with a known target gene and a result. Of all reagents, 429 (2%) were called active. 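Values are raw and not normalised between plates; calls rest on per-plate z-scores that were not deposited.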 The numbers tell different reagents against one gene apart. Names joined by + are all predicted targets of the reagent. No sequences are given here. The record does not give: the amount of reagent, the time to read-out.

Knock-down of Dic4 gave: Kc cell number, rep 1 = 1.76e6; Kc cell number, rep 2 = 1.92e6; S2R+ cell number, rep 1 = 1.31e6; S2R+ cell number, rep 2 = 1.39e6; inactive.
Silencing of tomboy20 gave: Kc cell number, rep 1 = 1.42e6; Kc cell number, rep 2 = 1.56e6; S2R+ cell number, rep 1 = 1.35e6; S2R+ cell number, rep 2 = 1.44e6; inactive.
Silencing of Wdr59 (WD repeat domain 59) came out at: Kc cell number, rep 1 = 1.41e6; Kc cell number, rep 2 = 1.44e6; S2R+ cell number, rep 1 = 1.11e6; S2R+ cell number, rep 2 = 1.15e6; inactive.
After knock-down of CG43901 #1, the record shows Kc cell number, rep 1 = 1.52e6; Kc cell number, rep 2 = 1.46e6; S2R+ cell number, rep 1 = 1.06e6; S2R+ cell number, rep 2 = 1.16e6; inactive.
Silencing of CG43901 #2 gave: Kc cell number, rep 1 = 1.46e6; Kc cell number, rep 2 = 1.38e6; S2R+ cell number, rep 1 = 7.66e5; S2R+ cell number, rep 2 = 8.17e5; inactive.
Obp93a (Odorant-binding protein 93a) showed Kc cell number, rep 1 = 1.39e6; Kc cell number, rep 2 = 1.41e6; S2R+ cell number, rep 1 = 9.98e5; S2R+ cell number, rep 2 = 1.09e6; inactive.
For Noc1 (Nucleolar complex protein 1), the values are Kc cell number, rep 1 = 1.31e6; Kc cell number, rep 2 = 1.41e6; S2R+ cell number, rep 1 = 1.12e6; S2R+ cell number, rep 2 = 1.03e6; inactive.
For CG7071 + Muted, the values are Kc cell number, rep 1 = 1.25e6; Kc cell number, rep 2 = 1.45e6; S2R+ cell number, rep 1 = 1.06e6; S2R+ cell number, rep 2 = 1.13e6; inactive.
Against Obp83b (Odorant-binding protein 83b), the entry reads Kc cell number, rep 1 = 1.68e6; Kc cell number, rep 2 = 1.77e6; S2R+ cell number, rep 1 = 1.33e6; S2R+ cell number, rep 2 = 1.52e6; inactive.
After knock-down of Hmgcl (3-Hydroxymethyl-3-methylglutaryl-CoA lyase) the results were Kc cell number, rep 1 = 1.63e6; Kc cell number, rep 2 = 1.53e6; S2R+ cell number, rep 1 = 1.12e6; S2R+ cell number, rep 2 = 1.25e6; inactive.
Tg (Transglutaminase) scored Kc cell number, rep 1 = 1.57e6; Kc cell number, rep 2 = 1.67e6; S2R+ cell number, rep 1 = 1.18e6; S2R+ cell number, rep 2 = 1.40e6; inactive.
Knock-down of CG18764 gave: Kc cell number, rep 1 = 1.58e6; Kc cell number, rep 2 = 1.66e6; S2R+ cell number, rep 1 = 1.37e6; S2R+ cell number, rep 2 = 1.44e6; inactive.
With knock-down of CG44098 #1 the results were Kc cell number, rep 1 = 1.39e6; Kc cell number, rep 2 = 1.62e6; S2R+ cell number, rep 1 = 1.30e6; S2R+ cell number, rep 2 = 1.39e6; inactive.
Against CG44098 #2, the values are Kc cell number, rep 1 = 1.36e6; Kc cell number, rep 2 = 1.49e6; S2R+ cell number, rep 1 = 1.34e6; S2R+ cell number, rep 2 = 1.47e6; inactive.
